How the values were obtained:
[1] = Mass and COD balance of PAH-packed column fed with ozonated water; conditions: for Column after ozonation: 4 h ozonated water; for Amount reduced, column and effluent: 4 h ozonation
[2] = Biological incubation of ozonated column effluent, species identified by GC/MS; design: key to found in ozonated effluent, 0 day / found in ozonated effluent, 5 days / found in ozonated effluent, 10 days / found in ozonated effluent, 15 days / found in ozonated effluent, 20 days: •: found; ◯: not found; conditions: pyrene column effluent; for found in ozonated effluent, 0 day: biological incubation 0 day; for found in ozonated effluent, 5 days: biological incubation 5 days; for found in ozonated effluent, 10 days: biological incubation 10 days; for found in ozonated effluent, 15 days: biological incubation 15 days; for found in ozonated effluent, 20 days: biological incubation 20 days
Polyseed = assay: Biochemical oxygen demand (BOD) test; conditions: pyrene solutions
[3] = benzo[a]pyrene-loaded column, listed as BaP
[4] = pyrene-loaded column, 4 h, 10.5 L, GC/FID

c1ccc2c(c1)cc1ccc3cccc4ccc2c1c34 [Benzo[a]pyrene]
COD, amount reduced, column and effluent ([1]; benzo[a]pyrene-loaded column): 36.0 mg O2 | COD, column after ozonation ([1]; benzo[a]pyrene-loaded column): 340 mg O2 | COD, effluent ([1]; benzo[a]pyrene-loaded column): 78.0 mg O2 | mole ratio of consumed ozone to consumed BaP ([1]; benzo[a]pyrene-loaded column, 4 h): 7.6 | Effluent ([1]; benzo[a]pyrene-loaded column, 4 h, 9.75 L): 0.0 mg | Column after ozonation ([1]; benzo[a]pyrene-loaded column, GC/FID): 117 mg | Amount reduced, column and effluent [1, 3]: 32.5 mg | COD, amount reduced, column and effluent [1, 3]: 36 mg O2

O=c1c2ccccc2oc2ccccc12 [xanthone (10), xanthone]
found in ozonated effluent, 0 day [2]: • | found in ozonated effluent, 5 days [2]: ◯ | found in ozonated effluent, 10 days [2]: ◯ | found in ozonated effluent, 15 days [2]: ◯ | found in ozonated effluent, 20 days [2]: ◯

O=C1OC(=O)c2ccccc21 [phthalic anhydride (7), phthalic anhydride]
found in ozonated effluent, 0 day [2]: • | found in ozonated effluent, 5 days [2]: ◯ | found in ozonated effluent, 10 days [2]: ◯ | found in ozonated effluent, 15 days [2]: ◯ | found in ozonated effluent, 20 days [2]: ◯

CCCCOC(=O)c1ccccc1C(=O)OCc1ccccc1 [benzylbutyl phthalate (5), benzylbutyl phthalate]
found in ozonated effluent, 0 day [2]: • | found in ozonated effluent, 5 days [2]: • | found in ozonated effluent, 10 days [2]: • | found in ozonated effluent, 15 days [2]: • | found in ozonated effluent, 20 days [2]: •

c1cc2c3c(c1)ccc1cccc(c13)C2 [4H-cyclopenta[def]phenanthrene (8)]
found in ozonated effluent, 0 day [2]: • | found in ozonated effluent, 5 days [2]: ◯ | found in ozonated effluent, 10 days [2]: ◯ | found in ozonated effluent, 15 days [2]: ◯ | found in ozonated effluent, 20 days [2]: ◯

c1cc2ccc3cccc4ccc(c1)c2c34 [Pyrene]
BOD5/COD ratio (Polyseed): 0.83 | BOD5/COD ratio (Polyseed; as worded in text): over 80% | BOD5 (Polyseed; means ± standard deviations of triplicates): 0.83 ± 0.15 mg/L | found in ozonated effluent, 0 day [2]: • | found in ozonated effluent, 5 days [2]: ◯ | found in ozonated effluent, 10 days [2]: ◯ | found in ozonated effluent, 15 days [2]: ◯ | found in ozonated effluent, 20 days [2]: ◯ | COD, amount reduced, column and effluent ([1]; pyrene-loaded column): 36 mg O2 | COD, column after ozonation ([1]; pyrene-loaded column): 280 mg O2 | COD, effluent ([1]; pyrene-loaded column): 116 mg O2 | mole ratio of consumed ozone to consumed pyrene ([1]; pyrene-loaded column, 4 h): 3.3 | Effluent [1, 4]: 1.24 mg | Column after ozonation ([1]; pyrene-loaded column, GC/FID): 74.6 mg | Amount reduced, column and effluent ([1]; pyrene-loaded column): 73.8 mg

CCOC(=O)c1ccccc1C(=O)OCC [diethyl phthalate (6), diethyl phthalate]
found in ozonated effluent, 0 day [2]: ◯ | found in ozonated effluent, 5 days [2]: ◯ | found in ozonated effluent, 10 days [2]: ◯ | found in ozonated effluent, 15 days [2]: ◯ | found in ozonated effluent, 20 days [2]: ◯

CCCCOC(=O)c1ccccc1C(=O)OCCCC [dibutyl phthalate (12), dibutyl phthalate]
found in ozonated effluent, 0 day [2]: • | found in ozonated effluent, 5 days [2]: • | found in ozonated effluent, 10 days [2]: • | found in ozonated effluent, 15 days [2]: • | found in ozonated effluent, 20 days [2]: •

c1cc2c3c(c1)ccc1cccc(c13)C2 [cyclopenta[def]phenanthrene (9)]
found in ozonated effluent, 0 day [2]: • | found in ozonated effluent, 5 days [2]: • | found in ozonated effluent, 10 days [2]: • | found in ozonated effluent, 15 days [2]: • | found in ozonated effluent, 20 days [2]: •

O=Cc1cccc(C=O)c1-c1c(C=O)cccc1C=O [2,2′,6,6′-biphenyltetraaldehyde (3), 2,2′,6,6′-biphenyltetraaldehyde]
Effluent [1, 4]: 1.72 mg | Column after ozonation ([1]; pyrene-loaded column, GC/FID): 0 mg

O=Cc1cccc2ccc3cccc(C=O)c3c12 [4,5-phenanthrenedialdehyde (2), 4,5-phenanthrenedialdehyde]
found in ozonated effluent, 0 day [2]: • | found in ozonated effluent, 5 days [2]: • | found in ozonated effluent, 10 days [2]: • | found in ozonated effluent, 15 days [2]: • | found in ozonated effluent, 20 days [2]: • | Effluent [1, 4]: 1.43 mg | Column after ozonation ([1]; pyrene-loaded column, GC/FID): 0 mg

nonyl phenol [nonyl phenol (13)]
fate during the first 5 days of incubation [2]: disappearance | found in ozonated effluent, 0 day [2]: • | found in ozonated effluent, 5 days [2]: ◯ | found in ozonated effluent, 10 days [2]: ◯ | found in ozonated effluent, 15 days [2]: ◯ | found in ozonated effluent, 20 days [2]: ◯

— patent publication US8557565B2, “Degradation of polycyclic aromatic hydrocarbons to render them available for biodegradation” (priority 1999, dated 2013)
